Data reported in the supplement of paper PMC10849652.
The other results are listed elsewhere or left out.

The chains behind the UniProt entries cited, without tags or fusion partners. Where a name states a change or a piece, a line headed by the entry shows the natural chain unless it says otherwise.
UniProt Q08722, whole entry, looked up: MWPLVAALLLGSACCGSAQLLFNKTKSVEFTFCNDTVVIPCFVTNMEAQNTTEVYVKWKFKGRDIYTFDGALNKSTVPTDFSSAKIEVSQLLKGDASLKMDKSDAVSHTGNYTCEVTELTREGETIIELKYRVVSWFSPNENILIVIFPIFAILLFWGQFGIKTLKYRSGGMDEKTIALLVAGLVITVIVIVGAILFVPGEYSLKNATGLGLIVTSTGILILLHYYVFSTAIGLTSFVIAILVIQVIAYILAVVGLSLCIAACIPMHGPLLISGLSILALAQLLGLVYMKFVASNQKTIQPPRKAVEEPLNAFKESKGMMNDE
UniProt P50990: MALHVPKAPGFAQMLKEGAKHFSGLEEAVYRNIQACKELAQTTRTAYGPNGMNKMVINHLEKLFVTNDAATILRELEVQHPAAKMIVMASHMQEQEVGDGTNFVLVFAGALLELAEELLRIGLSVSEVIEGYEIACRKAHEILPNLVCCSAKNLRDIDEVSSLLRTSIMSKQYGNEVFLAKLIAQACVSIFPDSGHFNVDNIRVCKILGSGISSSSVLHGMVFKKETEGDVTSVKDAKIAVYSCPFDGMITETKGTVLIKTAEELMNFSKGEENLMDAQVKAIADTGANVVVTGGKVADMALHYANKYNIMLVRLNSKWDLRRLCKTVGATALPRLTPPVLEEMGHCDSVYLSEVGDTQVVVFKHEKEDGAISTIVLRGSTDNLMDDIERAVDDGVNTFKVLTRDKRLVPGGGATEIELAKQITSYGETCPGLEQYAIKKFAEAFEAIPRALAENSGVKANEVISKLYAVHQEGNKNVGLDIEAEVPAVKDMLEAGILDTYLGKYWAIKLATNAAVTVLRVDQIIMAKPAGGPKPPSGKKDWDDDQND
UniProt Q9HA77: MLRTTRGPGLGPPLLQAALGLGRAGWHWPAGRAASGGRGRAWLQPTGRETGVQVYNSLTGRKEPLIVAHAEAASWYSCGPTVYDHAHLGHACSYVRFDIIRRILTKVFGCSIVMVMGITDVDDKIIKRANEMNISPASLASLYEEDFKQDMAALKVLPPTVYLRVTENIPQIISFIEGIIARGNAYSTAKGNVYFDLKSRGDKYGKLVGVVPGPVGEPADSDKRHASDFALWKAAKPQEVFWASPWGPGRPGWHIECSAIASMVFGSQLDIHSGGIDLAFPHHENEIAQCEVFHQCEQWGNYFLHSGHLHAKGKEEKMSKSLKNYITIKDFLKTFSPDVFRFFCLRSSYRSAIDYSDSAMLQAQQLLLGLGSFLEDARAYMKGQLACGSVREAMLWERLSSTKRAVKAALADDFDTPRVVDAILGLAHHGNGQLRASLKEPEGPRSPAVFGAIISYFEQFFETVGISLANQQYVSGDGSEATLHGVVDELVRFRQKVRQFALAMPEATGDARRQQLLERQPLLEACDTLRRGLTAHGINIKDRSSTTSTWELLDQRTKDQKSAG
UniProt Q6PII3: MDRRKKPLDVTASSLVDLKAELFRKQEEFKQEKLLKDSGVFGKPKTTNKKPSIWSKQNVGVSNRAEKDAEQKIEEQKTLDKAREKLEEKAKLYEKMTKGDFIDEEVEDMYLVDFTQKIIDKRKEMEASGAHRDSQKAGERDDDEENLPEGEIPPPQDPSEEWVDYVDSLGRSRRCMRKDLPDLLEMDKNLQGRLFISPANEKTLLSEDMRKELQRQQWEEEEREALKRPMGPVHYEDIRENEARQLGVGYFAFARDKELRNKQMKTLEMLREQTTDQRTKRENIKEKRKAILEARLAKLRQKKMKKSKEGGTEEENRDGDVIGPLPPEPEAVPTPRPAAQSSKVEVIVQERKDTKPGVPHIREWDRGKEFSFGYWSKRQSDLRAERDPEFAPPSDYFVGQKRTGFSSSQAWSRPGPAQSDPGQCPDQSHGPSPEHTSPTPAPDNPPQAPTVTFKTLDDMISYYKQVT
UniProt Q04900: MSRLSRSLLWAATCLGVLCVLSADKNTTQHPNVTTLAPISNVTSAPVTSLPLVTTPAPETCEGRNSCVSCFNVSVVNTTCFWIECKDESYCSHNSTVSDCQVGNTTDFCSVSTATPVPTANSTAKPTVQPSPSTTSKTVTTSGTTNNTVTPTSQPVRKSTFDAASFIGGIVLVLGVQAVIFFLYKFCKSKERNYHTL
UniProt O15234, whole entry, looked up: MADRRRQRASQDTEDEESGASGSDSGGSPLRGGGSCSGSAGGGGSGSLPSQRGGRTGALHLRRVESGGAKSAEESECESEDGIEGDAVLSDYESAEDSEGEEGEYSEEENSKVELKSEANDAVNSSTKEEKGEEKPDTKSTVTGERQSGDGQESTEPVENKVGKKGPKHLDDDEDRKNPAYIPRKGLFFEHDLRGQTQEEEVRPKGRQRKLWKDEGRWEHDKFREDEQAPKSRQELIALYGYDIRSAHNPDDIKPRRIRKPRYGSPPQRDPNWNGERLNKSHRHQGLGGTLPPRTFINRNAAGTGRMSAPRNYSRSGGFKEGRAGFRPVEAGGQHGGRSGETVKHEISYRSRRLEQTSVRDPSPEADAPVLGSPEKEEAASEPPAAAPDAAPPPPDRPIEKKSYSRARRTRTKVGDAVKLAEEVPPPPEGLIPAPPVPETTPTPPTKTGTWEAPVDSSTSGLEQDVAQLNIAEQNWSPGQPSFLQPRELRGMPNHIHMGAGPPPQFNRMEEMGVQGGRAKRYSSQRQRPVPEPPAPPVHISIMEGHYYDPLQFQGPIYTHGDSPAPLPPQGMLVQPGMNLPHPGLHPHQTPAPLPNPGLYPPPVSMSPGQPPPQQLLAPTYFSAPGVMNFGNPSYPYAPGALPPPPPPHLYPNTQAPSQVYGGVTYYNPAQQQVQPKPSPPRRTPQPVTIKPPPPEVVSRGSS
UniProt P30260, whole entry, looked up: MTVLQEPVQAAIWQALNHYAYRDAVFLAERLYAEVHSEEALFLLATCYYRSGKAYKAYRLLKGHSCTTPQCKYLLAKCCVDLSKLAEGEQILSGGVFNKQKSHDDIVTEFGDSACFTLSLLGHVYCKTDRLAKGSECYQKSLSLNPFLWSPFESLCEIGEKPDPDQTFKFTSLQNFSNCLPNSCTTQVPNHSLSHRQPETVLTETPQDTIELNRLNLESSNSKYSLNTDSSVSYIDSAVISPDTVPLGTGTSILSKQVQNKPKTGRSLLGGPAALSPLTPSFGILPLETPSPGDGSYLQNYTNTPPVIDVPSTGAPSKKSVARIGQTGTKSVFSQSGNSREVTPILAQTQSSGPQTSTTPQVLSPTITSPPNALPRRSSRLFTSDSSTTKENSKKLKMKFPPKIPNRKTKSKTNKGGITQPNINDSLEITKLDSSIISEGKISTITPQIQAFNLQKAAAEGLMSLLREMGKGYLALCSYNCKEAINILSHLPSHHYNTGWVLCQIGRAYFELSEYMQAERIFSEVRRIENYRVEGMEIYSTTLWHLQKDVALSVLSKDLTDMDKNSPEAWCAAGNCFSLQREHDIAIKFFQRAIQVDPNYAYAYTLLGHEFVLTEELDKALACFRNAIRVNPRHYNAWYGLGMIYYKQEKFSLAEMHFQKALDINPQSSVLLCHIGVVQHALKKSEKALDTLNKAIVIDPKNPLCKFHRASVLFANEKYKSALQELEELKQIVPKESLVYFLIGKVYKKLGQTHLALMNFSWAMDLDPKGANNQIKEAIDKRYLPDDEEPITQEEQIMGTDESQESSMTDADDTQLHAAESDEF
UniProt P50991: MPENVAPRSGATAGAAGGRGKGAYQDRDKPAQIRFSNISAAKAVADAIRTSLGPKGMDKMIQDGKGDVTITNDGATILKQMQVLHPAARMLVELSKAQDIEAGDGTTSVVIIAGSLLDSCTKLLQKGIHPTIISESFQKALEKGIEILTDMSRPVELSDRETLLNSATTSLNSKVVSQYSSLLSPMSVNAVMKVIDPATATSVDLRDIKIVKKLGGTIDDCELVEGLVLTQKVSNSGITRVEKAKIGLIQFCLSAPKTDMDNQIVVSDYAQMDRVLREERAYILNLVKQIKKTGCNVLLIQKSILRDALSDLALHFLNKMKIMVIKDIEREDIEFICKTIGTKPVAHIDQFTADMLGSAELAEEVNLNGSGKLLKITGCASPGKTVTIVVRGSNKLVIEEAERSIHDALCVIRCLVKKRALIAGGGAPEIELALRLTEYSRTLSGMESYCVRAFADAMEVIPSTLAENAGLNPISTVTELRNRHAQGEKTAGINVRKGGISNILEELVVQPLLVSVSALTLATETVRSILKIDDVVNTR
UniProt P33681, whole entry, looked up: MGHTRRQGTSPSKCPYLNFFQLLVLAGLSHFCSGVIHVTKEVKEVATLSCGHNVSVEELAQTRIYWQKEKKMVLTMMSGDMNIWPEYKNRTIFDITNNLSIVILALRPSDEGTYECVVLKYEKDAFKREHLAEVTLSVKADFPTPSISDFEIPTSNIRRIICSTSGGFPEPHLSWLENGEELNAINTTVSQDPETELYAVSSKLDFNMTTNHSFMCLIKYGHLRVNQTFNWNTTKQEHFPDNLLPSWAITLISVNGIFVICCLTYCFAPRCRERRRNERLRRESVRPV
UniProt Q4VC31: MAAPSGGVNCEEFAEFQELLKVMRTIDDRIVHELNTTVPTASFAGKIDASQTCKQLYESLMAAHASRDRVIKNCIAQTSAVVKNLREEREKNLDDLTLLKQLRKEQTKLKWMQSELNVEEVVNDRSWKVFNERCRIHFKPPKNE
UniProt Q13951, whole entry, looked up: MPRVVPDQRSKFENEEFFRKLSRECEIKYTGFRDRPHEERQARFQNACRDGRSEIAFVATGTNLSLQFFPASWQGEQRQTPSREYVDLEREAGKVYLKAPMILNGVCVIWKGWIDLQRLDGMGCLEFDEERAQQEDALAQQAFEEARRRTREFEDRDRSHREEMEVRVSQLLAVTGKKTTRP
UniProt O95273: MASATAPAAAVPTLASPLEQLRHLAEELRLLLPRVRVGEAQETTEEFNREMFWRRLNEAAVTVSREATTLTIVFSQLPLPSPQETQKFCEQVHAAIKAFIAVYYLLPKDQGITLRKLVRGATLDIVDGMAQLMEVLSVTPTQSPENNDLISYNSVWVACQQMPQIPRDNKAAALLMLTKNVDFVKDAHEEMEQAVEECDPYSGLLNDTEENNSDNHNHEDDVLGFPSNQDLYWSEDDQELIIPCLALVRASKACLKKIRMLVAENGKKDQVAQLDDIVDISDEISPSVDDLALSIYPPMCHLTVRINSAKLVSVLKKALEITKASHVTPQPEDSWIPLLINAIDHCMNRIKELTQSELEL
UniProt Q5M9N0: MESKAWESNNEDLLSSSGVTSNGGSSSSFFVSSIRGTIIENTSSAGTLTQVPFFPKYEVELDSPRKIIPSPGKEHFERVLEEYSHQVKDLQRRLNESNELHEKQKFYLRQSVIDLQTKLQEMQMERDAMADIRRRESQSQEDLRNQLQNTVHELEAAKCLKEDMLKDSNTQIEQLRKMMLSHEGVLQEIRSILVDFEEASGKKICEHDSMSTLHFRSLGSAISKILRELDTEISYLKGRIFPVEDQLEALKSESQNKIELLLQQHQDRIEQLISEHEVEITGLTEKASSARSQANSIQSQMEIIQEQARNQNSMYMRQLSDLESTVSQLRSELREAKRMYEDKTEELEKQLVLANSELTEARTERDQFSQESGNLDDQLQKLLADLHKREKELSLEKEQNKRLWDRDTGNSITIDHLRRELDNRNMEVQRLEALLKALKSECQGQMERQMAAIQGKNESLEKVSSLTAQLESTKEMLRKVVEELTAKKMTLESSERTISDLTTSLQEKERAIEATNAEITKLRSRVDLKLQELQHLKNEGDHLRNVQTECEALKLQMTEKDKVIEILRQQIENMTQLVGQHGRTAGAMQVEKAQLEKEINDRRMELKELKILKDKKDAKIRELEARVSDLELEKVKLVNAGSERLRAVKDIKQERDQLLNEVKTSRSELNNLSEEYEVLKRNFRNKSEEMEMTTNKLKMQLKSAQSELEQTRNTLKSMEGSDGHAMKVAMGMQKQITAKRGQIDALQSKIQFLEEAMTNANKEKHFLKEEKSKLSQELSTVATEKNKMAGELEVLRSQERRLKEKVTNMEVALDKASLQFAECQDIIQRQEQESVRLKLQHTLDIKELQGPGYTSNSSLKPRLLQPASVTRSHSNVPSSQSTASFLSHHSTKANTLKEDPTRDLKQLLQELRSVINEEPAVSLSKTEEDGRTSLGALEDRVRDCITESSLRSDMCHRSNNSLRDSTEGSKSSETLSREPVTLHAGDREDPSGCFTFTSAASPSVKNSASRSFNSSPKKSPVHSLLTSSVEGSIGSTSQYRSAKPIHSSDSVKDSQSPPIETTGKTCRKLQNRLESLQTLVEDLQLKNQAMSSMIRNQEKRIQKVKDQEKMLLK
UniProt O14618: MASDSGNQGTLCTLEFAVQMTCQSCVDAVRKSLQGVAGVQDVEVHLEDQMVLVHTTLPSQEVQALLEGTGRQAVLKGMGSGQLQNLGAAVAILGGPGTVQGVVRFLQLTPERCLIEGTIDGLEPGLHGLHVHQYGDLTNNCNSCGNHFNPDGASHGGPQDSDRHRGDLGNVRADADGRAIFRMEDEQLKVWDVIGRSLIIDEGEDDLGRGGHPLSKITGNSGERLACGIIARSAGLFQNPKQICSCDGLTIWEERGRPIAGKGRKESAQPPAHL

What was measured:
Experiment in all cases: log2 fold change, soluble protein after heating vs DMSO (PISA); higher = thermal stabilisation; K562 cells, 10 uM, 30 min; active = over 0.2 and 3.5 SD of the protein, either way, in both replicates (recomputed)
[1] = compound: NC(=O)Nc1cc(-c2cccc(F)c2)sc1C(=O)N[C@H]1CCCNC1
Summary of the method: (§1)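 K562 cells at 2×10^6 cells/mL were given 10 μM compound for 30 min. Aliquots then went through 3 min of heating across 48°C-58°C, were pooled, and were extracted in PBS with 0.5% NP-40 at 4°C, and the supernatant after 21,000xg for 90 min was quantified by TMTpro 16plex LC-MS/MS with channel sums equalised. Thermal stability relative to control samples, from duplicates, is given as log2 fold change.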

[2] = compound: NC(=O)c1cnc(N[C@@H]2CCCC[C@@H]2N)nc1Nc1cccc(-n2nccn2)c1
Summary of the method: as §1

[3] = compound: NC1(c2ccc(-c3nc4ccn5c(=O)[nH]nc5c4cc3-c3ccccc3)cc2)CCC1
Summary of the method: as §1

[4] = compound: NCC(=O)Nc1ccc(-n2nc(C(F)(F)F)cc2-c2ccc3c(ccc4ccccc43)c2)cc1
Summary of the method: as §1

[5] = compound: Nc1ccccc1NC(=O)c1ccc(CNC(=O)OCc2cccnc2)cc1 [entinostat]
Summary of the method: as §1

[6] = compound: O=C(CCCCCCC(=O)Nc1ccccc1)NO [vorinostat]
Summary of the method: as §1

[7] = compound: O=C(CCCCCCNC(=O)c1cnc(N(c2ccccc2)c2ccccc2Cl)nc1)NO [citarinostat]
Summary of the method: as §1

[8] = compound: O=C(O)c1ccc2c(c1)nc(Nc1cccc(Cl)c1)c1ccncc12 [silmitasertib]
Summary of the method: as §1

[9] = compound: O=C1NC(=O)C(c2cnc3ccccn23)=C1c1cn2c3c(cc(F)cc13)CN(C(=O)N1CCCCC1)CC2
Summary of the method: as §1

[10] = compound: c1cc(OCCN2CCCCC2)cc(-c2n[nH]c3ccc(-c4nnc[nH]4)cc23)c1
Summary of the method: as §1

[11] = compound: c1cn2cc(-c3ccc4cn[nH]c4c3)nc(Nc3ccc(N4CCOCC4)cc3)c2n1 [entospletinib]
Summary of the method: as §1

Target | log2 fold change [1] | log2 fold change [2] | log2 fold change [3] | log2 fold change [4] | log2 fold change [5] | log2 fold change [6] | log2 fold change [7] | log2 fold change [8] | log2 fold change [9] | log2 fold change [10] | log2 fold change [11]
CDC42 (UniProt P60953) | inactive: 0.088 | inactive: 0.135 | inactive: 0.161 | inactive: 0.155 | inactive: -0.022 | inactive: -0.041 | inactive: 0 | inactive: -0.111 | inactive: -0.095 | inactive: 0.193 | inactive: 0.077
CARS isoform 3 (UniProt P49589) | inactive: -0.012 | inactive: -0.016 | inactive: -0.034 | inactive: -0.027 | inactive: -0.011 | inactive: 0.038 | inactive: 0.02 | inactive: -0.02 | inactive: 0.002 | inactive: -0.019 | inactive: -0.041
CARNMT1 (UniProt Q8N4J0) | inactive: -0.062 | inactive: -0.022 | inactive: -0.09 | inactive: -0.039 | inactive: 0.035 | inactive: 0.053 | inactive: 0.015 | inactive: 0.005 | inactive: 0.014 | inactive: 0.001 | inactive: 0.025
CDC40 (UniProt O60508) | inactive: 0.095 | inactive: 0.132 | inactive: 0.144 | inactive: 0.12 | inactive: -0.044 | inactive: -0.222 | inactive: -0.234 | inactive: 0.171 | inactive: 0.202 | inactive: -0.276 | inactive: 0.188
CCT6A (UniProt P40227) | inactive: 0.023 | inactive: 0.029 | inactive: 0.02 | inactive: 0.019 | inactive: -0.003 | inactive: 0.021 | inactive: -0.001 | inactive: -0.019 | inactive: -0.011 | inactive: -0.016 | inactive: -0.047
CD2AP (UniProt Q9Y5K6) | inactive: -0.008 | inactive: -0.012 | inactive: -0.071 | inactive: -0.06 | inactive: 0.01 | inactive: -0.002 | inactive: 0.033 | inactive: -0.015 | inactive: -0.032 | inactive: -0.025 | inactive: -0.029
CD59 isoform 2 (UniProt P13987) | inactive: -0.087 | inactive: 0.112 | inactive: 0.112 | inactive: 0.142 | inactive: -0.039 | inactive: -0.019 | inactive: 0.007 | inactive: 0.04 | inactive: -0.119 | inactive: -0.044 | inactive: 0.061
CD47 (UniProt Q08722) | inactive: -0.035 | inactive: 0.009 | inactive: 0.02 | inactive: -0.002 | inactive: 0.022 | inactive: -0.073 | inactive: 0.042 | inactive: 0.003 | inactive: -0.017 | inactive: -0.062 | inactive: -0.028
CCT8 (UniProt P50990) | inactive: 0.019 | inactive: 0.009 | inactive: -0.019 | inactive: 0.015 | inactive: 0.005 | inactive: 0.029 | inactive: 0.015 | inactive: -0.024 | inactive: 0.009 | inactive: -0.021 | inactive: -0.071
CARS2 (UniProt Q9HA77) | inactive: -0.009 | inactive: -0.037 | inactive: -0.002 | inactive: -0.077 | inactive: -0.033 | inactive: 0.028 | inactive: -0.012 | inactive: 0.047 | inactive: -0.075 | inactive: 0.007 | inactive: 0.055
CCDC25 (UniProt Q86WR0) | inactive: -0.001 | inactive: -0.054 | inactive: -0.015 | inactive: 0 | inactive: 0.029 | inactive: 0.112 | inactive: 0.076 | inactive: -0.003 | inactive: 0.008 | inactive: -0.044 | inactive: -0.039
CCDC88A (UniProt Q3V6T2) | inactive: -0.384 | inactive: -0.183 | inactive: -0.132 | inactive: -0.048 | inactive: -0.121 | inactive: 0.023 | inactive: -0.034 | inactive: 0.113 | inactive: -0.125 | inactive: -0.02 | inactive: -0.067
CCDC174 (UniProt Q6PII3) | inactive: 0.042 | inactive: -0.007 | inactive: 0.014 | inactive: 0.004 | inactive: -0.009 | inactive: 0.002 | inactive: -0.07 | inactive: -0.012 | inactive: -0.049 | inactive: 0.023 | inactive: 0.061
CD164 (UniProt Q04900) | inactive: -0.076 | inactive: -0.228 | inactive: 0.162 | inactive: -0.074 | inactive: 0.025 | inactive: 0.167 | inactive: 0.06 | inactive: -0.075 | inactive: -0.111 | inactive: -0.215 | inactive: -0.215
CASC3 (UniProt O15234) | inactive: 0.015 | inactive: 0.238 | inactive: -0.01 | inactive: 0.001 | inactive: -0.039 | inactive: -0.072 | inactive: 0 | inactive: 0.054 | inactive: 0.24 | inactive: -0.133 | active: 0.485
CD3EAP isoform 2 (UniProt O15446) | inactive: 0.181 | inactive: 0.075 | inactive: 0.187 | inactive: 0.041 | inactive: -0.063 | inactive: -0.014 | inactive: -0.049 | inactive: 0.12 | inactive: 0.161 | inactive: -0.121 | inactive: 0.036
CCDC43 (UniProt Q96MW1) | inactive: -0.016 | inactive: -0.01 | inactive: -0.077 | inactive: 0.006 | inactive: -0.006 | inactive: 0.015 | inactive: -0.002 | inactive: 0.007 | inactive: 0.018 | inactive: -0.045 | inactive: -0.056
CBL (UniProt P22681) | inactive: -0.023 | inactive: 0.026 | inactive: 0.003 | inactive: -0.053 | inactive: -0.031 | inactive: -0.04 | inactive: 0.025 | inactive: -0.033 | inactive: -0.054 | inactive: -0.007 | inactive: 0.019
CCT2 (UniProt P78371) | inactive: 0.027 | inactive: 0.018 | inactive: -0.005 | inactive: 0.013 | inactive: -0.004 | inactive: 0.021 | inactive: 0.01 | inactive: -0.014 | inactive: 0.033 | inactive: -0.032 | inactive: -0.063
CDC27 isoform 2 (UniProt P30260) | inactive: 0.005 | inactive: -0.006 | inactive: -0.033 | inactive: -0.027 | inactive: -0.03 | inactive: 0.008 | inactive: 0.013 | inactive: 0.029 | inactive: -0.01 | inactive: -0.064 | inactive: -0.006
CCT4 (UniProt P50991) | inactive: 0.035 | inactive: 0.015 | inactive: 0.011 | inactive: 0.039 | inactive: 0.016 | inactive: 0.033 | inactive: 0.013 | inactive: -0.031 | inactive: 0.002 | inactive: 0.003 | inactive: -0.062
CD80 (UniProt P33681) | inactive: -0.034 | inactive: 0.163 | inactive: 0.03 |  | inactive: -0.061 | inactive: -0.125 | inactive: 0.297 | inactive: -0.143 |  | inactive: -0.049 | inactive: -0.161
CCDC58 (UniProt Q4VC31) | inactive: -0.006 | inactive: 0.013 | inactive: 0.004 | inactive: 0.043 | inactive: -0.002 | inactive: -0.007 | inactive: 0.003 | inactive: -0.022 | inactive: -0.005 | inactive: 0.052 | inactive: -0.011
CBR4 (UniProt Q8N4T8) | inactive: 0.041 | inactive: 0.01 | inactive: -0.002 | inactive: -0.026 | inactive: 0.001 | inactive: -0.042 | inactive: -0.043 | inactive: 0.029 | inactive: -0.042 | inactive: -0.055 | inactive: 0.019
CBFB isoform 2 (UniProt Q13951) | inactive: 0.238 | inactive: -0.055 | inactive: -0.119 | inactive: 0.016 | inactive: 0.098 | inactive: 0.011 | inactive: -0.028 | inactive: 0.047 | inactive: -0.057 | inactive: 0.007 | inactive: 0.026
CCNDBP1 (UniProt O95273) | inactive: 0.046 | inactive: -0.027 | inactive: -0.091 | inactive: 0.069 | inactive: -0.036 | inactive: -0.069 | inactive: 0.05 | inactive: 0.087 |  | inactive: -0.084 | 
CCDC158 (UniProt Q5M9N0) | inactive: -0.101 | inactive: -0.115 | inactive: 0.101 | inactive: -0.086 | inactive: 0.078 | inactive: 0.078 |  | inactive: 0.019 | inactive: 0.055 |  | 
CCS (UniProt O14618) | inactive: -0.018 | inactive: 0.068 | inactive: -0.046 | inactive: -0.055 | inactive: -0.003 | inactive: 0.02 | inactive: 0.059 | inactive: 0.008 | inactive: -0.018 | inactive: 0.002 | inactive: -0.019

A stretch from further up:
Target | log2 fold change [1] | log2 fold change [2] | log2 fold change [3] | log2 fold change [4] | log2 fold change [5] | log2 fold change [6] | log2 fold change [7] | log2 fold change [8] | log2 fold change [9] | log2 fold change [10] | log2 fold change [11]
CARS isoform 3 (UniProt P49589) | inactive: -0.012 | inactive: -0.016 | inactive: -0.034 | inactive: -0.027 | inactive: -0.011 | inactive: 0.038 | inactive: 0.02 | inactive: -0.02 | inactive: 0.002 | inactive: -0.019 | inactive: -0.041
CARNMT1 (UniProt Q8N4J0) | inactive: -0.062 | inactive: -0.022 | inactive: -0.09 | inactive: -0.039 | inactive: 0.035 | inactive: 0.053 | inactive: 0.015 | inactive: 0.005 | inactive: 0.014 | inactive: 0.001 | inactive: 0.025
CDC40 (UniProt O60508) | inactive: 0.095 | inactive: 0.132 | inactive: 0.144 | inactive: 0.12 | inactive: -0.044 | inactive: -0.222 | inactive: -0.234 | inactive: 0.171 | inactive: 0.202 | inactive: -0.276 | inactive: 0.188
CCT6A (UniProt P40227) | inactive: 0.023 | inactive: 0.029 | inactive: 0.02 | inactive: 0.019 | inactive: -0.003 | inactive: 0.021 | inactive: -0.001 | inactive: -0.019 | inactive: -0.011 | inactive: -0.016 | inactive: -0.047
CD2AP (UniProt Q9Y5K6) | inactive: -0.008 | inactive: -0.012 | inactive: -0.071 | inactive: -0.06 | inactive: 0.01 | inactive: -0.002 | inactive: 0.033 | inactive: -0.015 | inactive: -0.032 | inactive: -0.025 | inactive: -0.029
CD59 isoform 2 (UniProt P13987) | inactive: -0.087 | inactive: 0.112 | inactive: 0.112 | inactive: 0.142 | inactive: -0.039 | inactive: -0.019 | inactive: 0.007 | inactive: 0.04 | inactive: -0.119 | inactive: -0.044 | inactive: 0.061
CD47 (UniProt Q08722) | inactive: -0.035 | inactive: 0.009 | inactive: 0.02 | inactive: -0.002 | inactive: 0.022 | inactive: -0.073 | inactive: 0.042 | inactive: 0.003 | inactive: -0.017 | inactive: -0.062 | inactive: -0.028
